{"source": "paper PMC4756317", "tested_on": "GAME9 (aa 40-219)", "test": "EMSA", "conditions": "200 ng protein, EMSA with unlabeled annealed oligonucleotides, equimolar probes, 1% agarose gel, pH and temperature not given (cites ref. 59), recombinant protein, protein details: His", "note": "The exact form of at least one protein or probe is not confirmed."}
{"sequence": "AATCAATTTTCATTAAATACAGCCTGCCACACATGCATATATTGTGTTA (double strand) [C5-SD GCC-box probe]", "values": [{"measurement": "binding result", "value": "binds"}]}
